Patent US20080015224A1, “Nitroxide superoxide dismutase mimetics to treat extracellular superoxide dismutase deficiencies” (priority 2006, published 2008)

By UniProt entry, the sequences of proteins in these tests, tags left out. Where a name states a change or a piece, a line headed by the entry shows the natural chain unless it says otherwise.
UniProt P01019: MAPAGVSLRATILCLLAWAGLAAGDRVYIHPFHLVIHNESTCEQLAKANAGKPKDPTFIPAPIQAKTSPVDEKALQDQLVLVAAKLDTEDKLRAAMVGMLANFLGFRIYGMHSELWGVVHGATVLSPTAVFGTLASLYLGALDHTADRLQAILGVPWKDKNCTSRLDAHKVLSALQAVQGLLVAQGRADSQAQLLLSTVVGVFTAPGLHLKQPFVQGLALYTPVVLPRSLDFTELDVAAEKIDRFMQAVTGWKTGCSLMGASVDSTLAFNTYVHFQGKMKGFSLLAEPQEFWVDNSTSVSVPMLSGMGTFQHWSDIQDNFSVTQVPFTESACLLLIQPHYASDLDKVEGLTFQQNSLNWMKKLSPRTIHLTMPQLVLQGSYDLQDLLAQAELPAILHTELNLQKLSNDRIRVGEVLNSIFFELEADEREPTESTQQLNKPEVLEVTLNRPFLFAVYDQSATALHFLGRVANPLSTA

Tested on: kidney cortex of EC-SOD +/+ and −/− mice
Assay: SOD activity in kidneys of Ang II-infused mice (chemiluminescence)
Type: in vivo, mouse
Conditions: Ang II 400 ng/kg per minute

Question: What does the source list for “angiotensin II (DRVYIHPF; Angiotensin-2; UniProt P01019 25-32, looked up) [Ang II, pressor peptide infused subcutaneously by osmotic minipump]”?
Answer: SOD activity in the kidneys of Ang II-infused mice (EC-SOD +/+): 8.8±1.2 U/mg protein^−1; SOD activity in the kidneys of Ang II-infused mice (EC-SOD −/−): 13.7±1.6 U/mg protein^−1
